# Structures can show the parent of a compound that is named as a salt. Several reference drugs read as weak here; read low effects with care.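 The three lines are all high-grade serous ovarian cancer cells with differing chemosensitivity; OVCAR3 is described as chemosensitive. Toxicity was normalized between DMSO vehicle wells and fully lysed wells, the score comes from a fitted multi-dose response curve, and a score above 5 was counted as drug sensitivity.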
# Assays:
# Test in all cases: drug sensitivity score (DSS2, cytotoxicity, CellTox Green); higher = more cytotoxic / more sensitive; extreme values may be limits of the assay
# Settings in all cases: 72 h; doses 0.5, 1, 5 µM
# [1] = tested on: OVCAR4
# [2] = tested on: OVCAR3
# [3] = tested on: Kuramochi
Structure (SMILES),drug sensitivity score [1],drug sensitivity score [2],drug sensitivity score [3]
O=C(O)c1cc(O)c(O)c(O)c1 [Gallic acid],0 DSS,0 DSS,0 DSS
O=C1OCCN1/N=C/c1ccc([N+](=O)[O-])o1 [Furazolidone],0 DSS,0 DSS,0 DSS
CN(C)C(=O)c1cc2cnc(Nc3ccc(N4CCNCC4)cn3)nc2n1C1CCCC1 [Ribociclib hydrochloride],0 DSS,0 DSS,0 DSS
Nc1nc(NC2CC2)c2ncn([C@H]3C=C[C@@H](CO)C3)c2n1 [Abacavir],0 DSS,0 DSS,0 DSS
COC(=O)Nc1nc2cc(C(=O)c3ccc(F)cc3)ccc2[nH]1 [Flubendazole],1.1 DSS,3.2 DSS,1.5 DSS
NC[C@H](O)c1ccc(O)c(O)c1 [Norepinephrine],0 DSS,0 DSS,0 DSS
Cc1ncc(C[n+]2csc(CCO)c2C)c(N)n1 [Thiamine (hydrochloride)],0 DSS,0 DSS,0 DSS
O=C(O)CCNC(=O)c1ccc(/N=N/c2ccc(O)c(C(=O)O)c2)cc1 [Balsalazide],0 DSS,0 DSS,0.2 DSS
COc1cc2c3cc1Oc1c(OC)c(OC)cc4c1[C@@H](Cc1ccc(O)c(c1)Oc1ccc(cc1)C[C@@H]3N(C)CC2)N(C)CC4 [Berbamine (dihydrochloride)],0 DSS,0 DSS,0 DSS
CCOc1cc(C(C)(C)C)ccc1C1=N[C@@](C)(c2ccc(Cl)cc2)[C@@](C)(c2ccc(Cl)cc2)N1C(=O)N1CCN(CC(=O)N2CCOCC2)CC1 [P53 and MDM2 proteins-interaction-inhibitor (chiral)],0 DSS,0.9 DSS,0 DSS
Cc1c(C)c2c(c(C)c1O)CCC(C)(CCCC(C)CCCC(C)CCCC(C)C)O2 (racemic) [DL-alpha-Tocopherol],0 DSS,0 DSS,0 DSS
CC(C)(C)NC(=O)[C@@H]1C[C@@H]2CCCC[C@@H]2CN1C[C@@H](O)[C@H](Cc1ccccc1)NC(=O)[C@H](CC(N)=O)NC(=O)c1ccc2ccccc2n1 [Saquinavir (Mesylate)],1.8 DSS,2.3 DSS,0 DSS
CC(C)(C)c1cc(-c2cc(-c3ccc(C(=O)O)cc3)ccc2OCCO)ccc1N1CCCC1 [Trifarotene],0 DSS,2.8 DSS,0 DSS
Cc1cn(-c2cc(NC(=O)c3ccc(C)c(Nc4nccc(-c5cccnc5)n4)c3)cc(C(F)(F)F)c2)cn1 [Nilotinib],0 DSS,0 DSS,0 DSS
CC(C)c1nc(N(C)S(C)(=O)=O)nc(-c2ccc(F)cc2)c1/C=C/[C@@H](O)C[C@@H](O)CC(=O)O [Rosuvastatin (Calcium)],0 DSS,0 DSS,0 DSS
CCOC(=O)C1=C(C)NC(C)=C(C(=O)OC)C1c1cccc(Cl)c1Cl (stereo unspecified) [Felodipine],2.9 DSS,2.4 DSS,4.6 DSS
CCn1cc(C(=O)O)c(=O)c2ccc(C)nc21 [Nalidixic acid],0 DSS,0 DSS,0 DSS
Cn1cnc2c(F)c(Nc3ccc(Br)cc3F)c(C(=O)NOCCO)cc21 [Binimetinib],0 DSS,0 DSS,0 DSS
O=C(CCCCCCC(=O)Nc1ccccc1)NO [Vorinostat],0 DSS,0.7 DSS,0.9 DSS
CCCNS(=O)(=O)Nc1ncnc(OCCOc2ncc(Br)cn2)c1-c1ccc(Br)cc1 [Macitentan],0 DSS,0 DSS,0 DSS
CC(C)(C)C[C@@H]1N[C@@H](C(=O)N[C@H]2CC[C@H](O)CC2)[C@H](c2cccc(Cl)c2F)[C@]12C(=O)Nc1cc(Cl)ccc12 [MI-773],0 DSS,0 DSS,0 DSS
CC1=Nc2ccc(Cl)cc2S(=O)(=O)N1 [Diazoxide],0 DSS,0 DSS,0 DSS
NC(=O)CCC(N)C(=O)O (racemic) [DL-Glutamine],0 DSS,0 DSS,0 DSS
C=Cc1c(C)c2cc3nc(cc4[nH]c(cc5nc(cc1[nH]2)C(C)=C5CCC(=O)O)c(CCC(=O)OC)c4C)[C@@]1(C)C3=CC=C(C(=O)OC)[C@H]1C(=O)OC.C=Cc1c(C)c2cc3nc(cc4[nH]c(cc5nc(cc1[nH]2)C(C)=C5CCC(=O)OC)c(CCC(=O)O)c4C)[C@@]1(C)C3=CC=C(C(=O)OC)[C@H]1C(=O)OC [Verteporfin],0 DSS,0 DSS,0 DSS

# Nothing new here: entries from further up.
Structure (SMILES),drug sensitivity score [1],drug sensitivity score [2],drug sensitivity score [3]
CC(C)(C)c1cc(-c2cc(-c3ccc(C(=O)O)cc3)ccc2OCCO)ccc1N1CCCC1 [Trifarotene],0 DSS,2.8 DSS,0 DSS
Cc1cn(-c2cc(NC(=O)c3ccc(C)c(Nc4nccc(-c5cccnc5)n4)c3)cc(C(F)(F)F)c2)cn1 [Nilotinib],0 DSS,0 DSS,0 DSS
CC(C)c1nc(N(C)S(C)(=O)=O)nc(-c2ccc(F)cc2)c1/C=C/[C@@H](O)C[C@@H](O)CC(=O)O [Rosuvastatin (Calcium)],0 DSS,0 DSS,0 DSS
CCOC(=O)C1=C(C)NC(C)=C(C(=O)OC)C1c1cccc(Cl)c1Cl (stereo unspecified) [Felodipine],2.9 DSS,2.4 DSS,4.6 DSS
CCn1cc(C(=O)O)c(=O)c2ccc(C)nc21 [Nalidixic acid],0 DSS,0 DSS,0 DSS
Cn1cnc2c(F)c(Nc3ccc(Br)cc3F)c(C(=O)NOCCO)cc21 [Binimetinib],0 DSS,0 DSS,0 DSS
O=C(CCCCCCC(=O)Nc1ccccc1)NO [Vorinostat],0 DSS,0.7 DSS,0.9 DSS
CCCNS(=O)(=O)Nc1ncnc(OCCOc2ncc(Br)cn2)c1-c1ccc(Br)cc1 [Macitentan],0 DSS,0 DSS,0 DSS
CC(C)(C)C[C@@H]1N[C@@H](C(=O)N[C@H]2CC[C@H](O)CC2)[C@H](c2cccc(Cl)c2F)[C@]12C(=O)Nc1cc(Cl)ccc12 [MI-773],0 DSS,0 DSS,0 DSS
CC1=Nc2ccc(Cl)cc2S(=O)(=O)N1 [Diazoxide],0 DSS,0 DSS,0 DSS
NC(=O)CCC(N)C(=O)O (racemic) [DL-Glutamine],0 DSS,0 DSS,0 DSS

# Additional results follow.

Structure (SMILES),drug sensitivity score [1],drug sensitivity score [2],drug sensitivity score [3]
CC(=O)OCC(=O)[C@@]1(O)[C@H](C)C[C@H]2[C@@H]3CCC4=CC(=O)C=C[C@]4(C)[C@@]3(F)[C@@H](O)C[C@@]21C [Dexamethasone acetate],0 DSS,0 DSS,0 DSS
O=C1CCC[C@@H]2[C@H]3CCC[N+]4([O-])CCC[C@@H](CN12)[C@@H]34 (stereo partly specified) [Oxymatrine],0 DSS,0 DSS,0 DSS
NC(=O)c1cccc2cn(-c3ccc([C@@H]4CCCNC4)cc3)nc12 [Niraparib (tosylate)],0 DSS,0 DSS,0 DSS
CC(=NNC(=S)N1CCC1)c1ccccn1,0 DSS,0 DSS,0 DSS
CNC(=O)c1cc(Oc2ccc(NC(=O)Nc3ccc(Cl)c(C(F)(F)F)c3)c(F)c2)ccn1 [Regorafenib (Hydrochloride)],3.4 DSS,0 DSS,0 DSS
C[Se]CC[C@H](N)C(=O)O [Selenomethionine],0 DSS,0 DSS,0 DSS
Cc1ccc(NS(=O)(=O)c2ccc3c(c2)C2C=CCC2C(c2ccc(C(=O)O)cc2)N3)cc1C (stereo unspecified) [MX69],0 DSS,0 DSS,0 DSS
Nc1nc(Cl)nc2c1ncn2[C@H]1C[C@H](O)[C@@H](CO)O1 [Cladribine],0 DSS,2.3 DSS,1.5 DSS
N[C@@H]1[C@H]2CN(c3nc4c(cc3F)c(=O)c(C(=O)O)cn4-c3ccc(F)cc3F)C[C@@H]12 [Trovafloxacin],0 DSS,0 DSS,0 DSS
CCCCC[C@H](O)/C=C/[C@@H]1[C@@H](C/C=C\CCCC(=O)O)[C@@H](O)C[C@H]1O [Dinoprost (tromethamine salt)],0 DSS,0 DSS,0 DSS
COc1cc2c(cc1OC)[C@@H]1Cc3ccc(OC)c(OC)c3CN1CC2 [Tetrahydropalmatine],0 DSS,0 DSS,0 DSS
CCCCCCc1ccc(O)cc1O [Hexylresorcinol],1.2 DSS,1 DSS,0.3 DSS
N=C(N)NC(=O)c1nc(Cl)c(N)nc1N [Amiloride hydrochloride dihydrate],0 DSS,0 DSS,0 DSS
CCCCc1oc2ccc(NS(C)(=O)=O)cc2c1C(=O)c1ccc(OCCCN(CCCC)CCCC)cc1 [Dronedarone (Hydrochloride)],2.1 DSS,0.8 DSS,0.3 DSS
Cc1ncc(CNC(=O)N(CCCl)N=O)c(N)n1 [Nimustine (hydrochloride)],0 DSS,0 DSS,0 DSS
Nc1ccc(S(=O)(=O)NC(=O)c2ccccc2)cc1 [Sulfabenzamide],0 DSS,0 DSS,0 DSS
C[C@H]1C[C@@H]2[C@H]([C@@H](O)C[C@@]3(C)[C@H]2CC[C@]3(O)C(=O)CO)[C@@]2(C)C=CC(=O)C=C12 [Methylprednisolone],0 DSS,0 DSS,0 DSS
CS(=O)(=O)CCNCc1ccc(-c2ccc3ncnc(Nc4ccc(OCc5cccc(F)c5)c(Cl)c4)c3c2)o1 [Lapatinib],0 DSS,0 DSS,0 DSS
NC(=O)c1cnccn1 [Pyrazinamide],0 DSS,0 DSS,0 DSS
COc1cc2nccc(Oc3ccc(NC(=O)C4(C(=O)Nc5ccc(F)cc5)CC4)cc3)c2cc1OC [Cabozantinib],0 DSS,0 DSS,0 DSS
Cc1nnc(NC(=O)c2nc(S(=O)(=O)Cc3ccc(F)cc3)ncc2Cl)s1,0 DSS,0 DSS,0 DSS
CC[C@H](C)[C@H](NC(=O)[C@H](Cc1ccc(O)cc1)NC(=O)[C@@H](NC(=O)[C@H](CCCNC(=N)N)NC(=O)[C@@H](N)CC(=O)O)C(C)C)C(=O)N[C@@H](Cc1cnc[nH]1)C(=O)N1CCC[C@H]1C(=O)N[C@@H](Cc1ccccc1)C(=O)O [Angiotensin II human],0 DSS,0 DSS,0 DSS
N[C@@H](CC(=O)N1CCn2c(nnc2C(F)(F)F)C1)Cc1cc(F)c(F)cc1F [Sitagliptin (phosphate monohydrate)],0 DSS,0 DSS,0 DSS
